The list does not hold the whole screen: it gathers some chemical classes. Other doses and runs of a compound may be missing. T/C is the treated group as % of the vehicle group. Where survival is the endpoint, the PubChem record calls one and a half times the control and up active, and a quarter to a half above the control has no call in these data; cut-offs in other NCI protocols can differ. Schedules are NCI's codes, taken here to give the interval after Q, in days (D) or hours (H), and the number of doses after X. Some T/C values are marked as having no survivor count here; that says nothing about deaths at the dose. Counts like (3×) give the number of equal values in this list. Some entries were tested several times; their values stand side by side, smallest first.
Test system: B6C3F1 mice, B16 melanoma ip, median survival T/C
Assay: NCI In Vivo Anticancer Drug Screen. Data for tumor model B16 Melanoma (intraperitoneal) in B6C3F1 mice
Conditions: T/C endpoint: median survival time, schedule: Q01DX009 (ip), higher T/C = longer survival
Method: The antitumor activity of compounds was measured in mice bearing transplantable tumors. Survival or tumor size were measured and the results are expressed as the measurement made in the treated group (T) divided by the measurement made in the vehicle treated control group (C). The tumor model used in this assay is B16 Melanoma (intraperitoneal) in B6C3F1 mice

[1] = dose: 0.38 mg/kg/injection, vehicle: saline + alcohol
[2] = dose: 0.38 mg/kg/injection, vehicle: water
[3] = dose: 0.75 mg/kg/injection, vehicle: saline + alcohol
[4] = dose: 0.75 mg/kg/injection, vehicle: water
[5] = dose: 1.5 mg/kg/injection, vehicle: saline + alcohol
[6] = dose: 3.0 mg/kg/injection, vehicle: saline + alcohol
[7] = dose: 0.5 mg/kg/injection, vehicle: saline + alcohol
[8] = dose: 1.0 mg/kg/injection, vehicle: saline + alcohol
[9] = dose: 2.0 mg/kg/injection, vehicle: saline + alcohol
[10] = dose: 2.5 mg/kg/injection, vehicle: saline + alcohol
[11] = dose: 5.0 mg/kg/injection, vehicle: saline + alcohol
[12] = dose: 10.0 mg/kg/injection, vehicle: saline + alcohol

CC1=CC2OC3CC4OC(=O)/C=C/C=C/C(C(C)O)OCC(O)C(C)CC(=O)OCC2(CC1O)C4(C)C31CO1 (stereo not given)
T/C (dose: 156.0 micrograms/kg/injection, vehicle: Klucel (hydroxypropylcellulose) (HPC)): 188 % of control [survivor count not shown]
T/C (dose: 310.0 micrograms/kg/injection, vehicle: Klucel (hydroxypropylcellulose) (HPC)): 193 % of control [survivor count not shown]
T/C (dose: 620.0 micrograms/kg/injection, vehicle: Klucel (hydroxypropylcellulose) (HPC)): 188 % of control [survivor count not shown]
T/C (dose: 1250.0 micrograms/kg/injection, vehicle: Klucel (hydroxypropylcellulose) (HPC)): 210 % of control [survivor count not shown]

CC(=O)OC[C@]12CCC(C)=C[C@H]1O[C@@H]1C(=O)[C@@H](OC(=O)CCl)[C@@]2(C)[C@@]12CO2
T/C (dose: 0.19 mg/kg/injection, vehicle: saline + alcohol): 114 % of control [survivor count not shown]
T/C [1]: 127 % of control [survivor count not shown]
T/C [2]: 131 % of control [survivor count not shown]
T/C [3]: 120 % of control [survivor count not shown]
T/C [4]: 147 % of control [survivor count not shown]
T/C [5]: 134 % of control [survivor count not shown]
T/C (dose: 1.5 mg/kg/injection, vehicle: water): 143 % of control [survivor count not shown]
T/C [6]: 122 % of control [survivor count not shown]
T/C (dose: 3.0 mg/kg/injection, vehicle: water): 136 % of control [survivor count not shown]

CC1=C[C@H]2O[C@H]3[C@H](O)[C@@H](OC(=O)CCl)[C@](C)([C@@]2(COC(=O)CCl)CC1)[C@@]31CO1
T/C [7]: 94 % of control [survivor count not shown]
T/C [8]: 105 % of control [survivor count not shown]
T/C [9]: 110 [survivor count not shown] and 115 % of control [survivor count not shown]
T/C (dose: 4.0 mg/kg/injection, vehicle: saline + alcohol): 121 % of control [survivor count not shown]
T/C (dose: 8.0 mg/kg/injection, vehicle: saline + alcohol): 143 % of control [survivor count not shown]

C/C=C/C(=O)OC[C@]12CCC(C)=C[C@H]1O[C@@H]1[C@H](O)[C@@H](O)[C@@]2(C)[C@@]12CO2
T/C [1]: 112 [survivor count not shown] and 123 % of control [survivor count not shown]
T/C [2]: 121 % of control [survivor count not shown]
T/C [3]: 118 [survivor count not shown] and 123 % of control [survivor count not shown]
T/C [4]: 127 % of control [survivor count not shown]
T/C [5]: 123 [survivor count not shown] and 125 % of control [survivor count not shown]
T/C [6]: 118 [survivor count not shown] and 122 % of control [survivor count not shown]

CC(=O)OC[C@]12CCC(C)=C[C@H]1O[C@H]1C(=O)[C@@H](OC(C)=O)[C@@]2(C)[C@]12CO2
T/C [7]: 122 % of control [survivor count not shown]
T/C [8]: 121 % of control [survivor count not shown]
T/C [9]: 135 % of control [survivor count not shown]

C[C@@H]1CCOC(=O)/C=C/C=C\C(=O)O[C@@H]2C[C@H]3O[C@@H]4[C@@H]5OC5(C)CCC4(COC(=O)[C@H]1O)[C@]2(C)[C@@]31CO1 (stereo not given in full)
T/C (dose: 0.25 mg/kg/injection, vehicle: Klucel (hydroxypropylcellulose) (HPC)): 121 % of control [survivor count not shown]
T/C (dose: 0.5 mg/kg/injection, vehicle: Klucel (hydroxypropylcellulose) (HPC)): 136 % of control [survivor count not shown]
T/C (dose: 1.0 mg/kg/injection, vehicle: Klucel (hydroxypropylcellulose) (HPC)): 129 % of control [survivor count not shown]
T/C (dose: 2.0 mg/kg/injection, vehicle: Klucel (hydroxypropylcellulose) (HPC)): 150 % of control [survivor count not shown]
T/C (dose: 4.0 mg/kg/injection, vehicle: Klucel (hydroxypropylcellulose) (HPC)): 146 % of control [survivor count not shown]

CC(=O)OCC12CC(=O)C(C)=CC1OC1C(=O)C(OC(=O)CCl)C2(C)C12CO2 (stereo not given)
T/C (dose: 0.12 mg/kg/injection, vehicle: distilled water + Tween-80): 121 % of control [survivor count not shown]
T/C (dose: 0.25 mg/kg/injection, vehicle: distilled water + Tween-80): 134 % of control [survivor count not shown]
T/C (dose: 0.5 mg/kg/injection, vehicle: distilled water + Tween-80): 142 [survivor count not shown] and 165 % of control [survivor count not shown]

CC(O)C1/C=C/C=C/C(=O)OC2CC3OC4C5OC5(C)C(O)CC4(COC(=O)C(O)C(C)CCO1)C2(C)C31CO1 (stereo not given)
T/C [10]: 138 % of control [survivor count not shown]
T/C [11]: 164 % of control [survivor count not shown]
T/C [12]: 158 % of control [survivor count not shown]

CC(=O)OC[C@]12CCC(C)=C[C@H]1O[C@@H]1[C@H](O)[C@@H](OC(C)=O)[C@@]2(C)[C@@]12CO2
T/C (dose: 3.12 mg/kg/injection, vehicle: Klucel (hydroxypropylcellulose) (HPC)): 118 % of control [survivor count not shown]

CC(=O)OC[C@]12CCC(C)=C[C@H]1O[C@@H]1[C@H](O)[C@@H](OC(=O)CCl)[C@@]2(C)[C@@]12CO2
T/C [1]: 117 % of control [survivor count not shown]
T/C [2]: 131 % of control [survivor count not shown]
T/C [3]: 120 % of control [survivor count not shown]

C[C@@H](O)[C@H]1/C=C/C=C\C(=O)O[C@@H]2C[C@H]3O[C@@H]4[C@@H]5OC5(C)CCC4(COC(=O)[C@H]4O[C@]4(C)[C@@H](O)CO1)[C@]2(C)[C@]31CO1 (stereo not given in full)
T/C (dose: 1.25 mg/kg/injection, vehicle: saline + alcohol): 153 % of control [survivor count not shown]
T/C [10]: 158 % of control [survivor count not shown]
T/C [11]: 145 % of control [survivor count not shown]
T/C [12]: 150 % of control [survivor count not shown]

C=C(C)C(=O)OCC12CCC(C)=CC1OC1C(=O)C(OC(=O)C(=C)C)C2(C)C12CO2 (stereo not given)
T/C (dose: 0.25 mg/kg/injection, vehicle: distilled water + Tween-80, evaluated on day 45): 114 % of control [survivor count not shown]
T/C (dose: 0.25 mg/kg/injection, vehicle: distilled water + Tween-80, evaluated on day 60): 137 % of control [survivor count not shown]
T/C (dose: 0.5 mg/kg/injection, vehicle: distilled water + Tween-80, evaluated on day 45): 109 [survivor count not shown] and 138 % of control [survivor count not shown]
T/C (dose: 0.5 mg/kg/injection, vehicle: distilled water + Tween-80, evaluated on day 60): 129 % of control [survivor count not shown] (2×)
T/C (dose: 1.0 mg/kg/injection, vehicle: distilled water + Tween-80, evaluated on day 45): 138 [survivor count not shown] and 147 % of control [survivor count not shown]
T/C (dose: 1.0 mg/kg/injection, vehicle: distilled water + Tween-80, evaluated on day 60): 138 [survivor count not shown] and 154 % of control [survivor count not shown]
T/C (dose: 2.0 mg/kg/injection, vehicle: distilled water + Tween-80, evaluated on day 45): 149 % of control [survivor count not shown]
T/C (dose: 2.0 mg/kg/injection, vehicle: distilled water + Tween-80, evaluated on day 60): 135 % of control [survivor count not shown]
T/C (dose: 4.0 mg/kg/injection, vehicle: distilled water + Tween-80): 142 % of control [survivor count not shown]

Reference: PubChem BioAssay AID200 (DTP/NCI, 2004)
